## Percent effect of library compounds

By UniProt entry, the sequences of proteins in these tests, tags left out. Residues count along the entry.
UniProt Q4DA54, 1-478: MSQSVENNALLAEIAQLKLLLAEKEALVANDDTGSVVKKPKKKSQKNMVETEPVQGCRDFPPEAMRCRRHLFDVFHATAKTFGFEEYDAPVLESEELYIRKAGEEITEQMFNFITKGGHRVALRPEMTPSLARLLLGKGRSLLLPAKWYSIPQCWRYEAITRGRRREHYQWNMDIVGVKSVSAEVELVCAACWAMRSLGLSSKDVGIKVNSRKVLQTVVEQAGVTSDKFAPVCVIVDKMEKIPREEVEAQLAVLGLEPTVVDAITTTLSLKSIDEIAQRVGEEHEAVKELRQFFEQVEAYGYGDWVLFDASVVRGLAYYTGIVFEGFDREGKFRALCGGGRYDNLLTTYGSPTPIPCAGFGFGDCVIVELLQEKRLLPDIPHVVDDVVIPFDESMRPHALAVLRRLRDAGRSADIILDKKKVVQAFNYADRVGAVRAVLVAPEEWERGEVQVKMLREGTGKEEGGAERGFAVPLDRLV
UniProt P9WNZ1, whole entry: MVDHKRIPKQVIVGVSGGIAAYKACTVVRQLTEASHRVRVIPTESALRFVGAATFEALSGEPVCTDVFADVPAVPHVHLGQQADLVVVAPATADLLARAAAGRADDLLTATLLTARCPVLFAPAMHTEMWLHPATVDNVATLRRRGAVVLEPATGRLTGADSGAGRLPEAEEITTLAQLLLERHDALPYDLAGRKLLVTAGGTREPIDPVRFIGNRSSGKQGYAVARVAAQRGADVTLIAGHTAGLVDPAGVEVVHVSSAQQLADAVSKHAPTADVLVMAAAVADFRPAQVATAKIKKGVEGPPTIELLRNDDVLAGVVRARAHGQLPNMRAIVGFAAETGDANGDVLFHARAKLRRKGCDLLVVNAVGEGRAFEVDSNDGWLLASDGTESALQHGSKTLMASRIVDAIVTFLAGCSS

A: 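Assay of Toxoplasma gondii numbers, read through their beta-galactosidase reporter with a colour substrate. Compounds at 10 µM. The record gives no direction; the compounds picked for IC50 retests had high values, so higher reads as fewer parasites. About 67,000 compounds were tested under these conditions; 0.38% (about 260) showed 50% or more at least once.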
B: 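Histidine-tRNA ligase, Trypanosoma cruzi CL Brener (UniProt Q4DA54). Enzyme assay of histidyl-tRNA synthetase; the read-out is not stated. Concentration: 30 µM. Direction is inferred from retests: higher values go with stronger inhibition. Of about 69,000 compounds tested this way, about 31 (0.045%) reached 50% or more in at least one test.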
C: 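Coenzyme A biosynthesis protein CoaBC, Mycobacterium tuberculosis (UniProt P9WNZ1). Enzyme assay of CoaBC with a phosphate dye (Biomol Green) read at 650 nm. Tested at 30 µM. Direction is inferred from only a few compounds that gave an IC50; most scored high, so higher reads as stronger inhibition. Most strong results did not repeat in a second test. Of about 67,000 compounds tested this way, about 40 (0.06%) reached 50% or more in at least one test.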
D: 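Cell assay of Leishmania donovani living inside macrophages; the read-out is not stated. Tested at 30 µM. Direction is inferred from retests: higher values go with stronger inhibition. Of about 69,000 compounds tested this way, about 1,000 (1.5%) reached 50% or more in at least one test.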

Results are given as percent effect. The controls that fix the scale are not given in the record; negative values are as filed. The compounds are a random part of those screened. Two or more numbers in one place are separate tests of the same structure; such repeats can differ widely. A dash means the value is not listed here; it may have been measured.

compound	A	B	C	D
[H][C@@]12C[C@@H](c3nc(C)no3)CN(S(=O)(=O)N(C)C)[C@]1([H])CCO2	8.273%	-	-	18.46%
COCCN(C)Cc1cc(Cl)ccc1OCC(O)CN1CCCCCC1 (centres unmarked)	-6.092%	35.32%	9.912%	41.77%
COCCCn1ccc(NC(=O)NCCCNc2ccccc2)n1	-33.92%	7.216%	7.692%	7.411%
Cc1noc(C(C)N2CCN(Cc3ccco3)CC2)n1 (centres unmarked)	-11.09%	6.358%	3.259%	28.56%
O=C(O)C(F)(F)F.[H][C@@]12C[C@H](C(=O)NC3CC3)CN(CC3CC3)[C@]1([H])CCO2	-1.068%	-	-	-17.34%
Cc1nc(NC2CC(C)(C)NC(C)(C)C2)c2c(n1)c(C)nn2C	16.17%	11.92%	8.594%	14.17%
Cc1cc(C(=O)N2CCn3cc(CN4CCOCC4)nc3C2)no1	-	11.76%	2.75%	-
COc1ncc(NCc2ccc(F)cc2)cc1C(N)=O	2.18%	3.867%	1.146%	-21.58%
CCOc1ccc(C#N)cc1NC(=O)N1CCCC(NC(=O)CC)C1 (centres unmarked)	-11.88%	4.211%	-2.789%	17.65%
Cc1ccc(CN2CC[C@H]3CO[C@H](CN(C)Cc4ccco4)[C@H]3C2)s1	-	-4.95%	-2.773%	-
Cc1cc(-c2nn(C)c(Cl)c2CN2CCOC(C(=O)O)C2)no1 (centres unmarked)	-6.822%	2.041%	1.587%	4.351%
[H][C@@]12CCN[C@]1([H])CN(S(=O)(=O)c1ccc(Cl)cc1)C2	-24.26%	-	-	-0.6837%
Cc1ccc(CN2CCn3cc(CN(C)Cc4ccco4)nc3C2)o1	-	7.609%	2.408%	-
Cc1ccc(N2CC[C@H]3C[C@H](C(=O)NCc4ccco4)O[C@H]3C2)nn1	-	11.43%	2.096%	-
CCCc1nc(CNCC2CCCN2c2cccnn2)cs1 (centres unmarked)	21.01%	14.2%	0.1267%	24.49%
CC(NC(=O)Nc1cccnc1N1CCOCC1)c1ccccn1 (centres unmarked)	6.885%	2.941%	7.337%	10.93%
OC(COCc1ccc(Cl)cc1)CN1CCC(c2ccn[nH]2)CC1 (centres unmarked)	-	2.256%	0.5141%	47.64%
O=C(O)C(F)(F)F.[H][C@@]12CN(C(=O)Cc3cccs3)C[C@]1([H])OCCN2C(C)C	21.46%	-	-	15.77%
O=c1cc(-c2cc(O)cc(CCC3CCCCN3)c2)cc[nH]1 (centres unmarked)	0.1729%	3.665%	5.556%	38.66%
CCn1c(C)nnc1CN(C)C1CCN(Cc2cnc(C)cn2)C1 (centres unmarked)	-1.01%	0.8475%	-4.846%	-0.1469%
COc1cc(C2(C(=O)NC3CCN(CC4CC4)CC3)CC2)ccc1C	-8.873%	4.444%	-6.303%	17.69%
O=C(Cn1ccc2sccc2c1=O)NC1CCCCC1	5.121%	1.98%	0.8475%	-9.236%
Cc1cn(CC(=O)Nc2cc(C(C)C)nn2C)cn1	-1.457%	-4%	8.874%	14.7%
Cc1ccc(N2CC[C@H](O)[C@@H]2Cc2cnn(C)c2)nn1	-20.46%	3.365%	2.353%	0.3362%
c1ccc2c(Cc3nnc([C@H]4CCN(C5CCC5)C4)o3)c[nH]c2c1	-8.304%	3.483%	9.234%	18.8%
NC(=O)N1CCCN(C2CCCCc3ccccc32)CC1 (centres unmarked)	-10.32%	9.195%	3.2%	-19.75%
Cc1cc(C)n(CCCn2cncc2-c2ccc3c(c2)CC(C)N3C)n1.Cl (centres unmarked)	-2.83%	-	-	2.187%
CCOCCCC(=O)Nc1ccc(OCc2noc(C3CC3)n2)cc1	2.519%	1.724%	8.73%	17.83%
CC1CN(CC(=O)Nc2nccs2)CCN1Cc1nccn1C (centres unmarked)	16.45%	7.872%	2.615%	33.87%
CN(C)CCN1CCOCC2(C1)CN(Cc1nccs1)CCO2.O=C(O)C(F)(F)F.O=C(O)C(F)(F)F.O=C(O)C(F)(F)F (centres unmarked)	-16.37%	-	-	6.12% & -3.206%
OC(COc1ccc(F)cc1)CN1CCC(Cn2cccn2)CC1 (centres unmarked)	-3.56%	2.662%	5.797%	28.45%
O=C(O)c1csc(S(=O)(=O)Nc2c(F)cccc2-n2cccn2)c1	3.256%	13.33%	8.264%	16.53%
[H][C@@]12COC[C@]1([H])[C@H](NC(=O)c1cscn1)CN2c1ncc(F)cn1	-5.681%	-	-	16.26%
Cc1cn2c(n1)CCC(NC(=O)c1cc[nH]n1)C2 (centres unmarked)	-3.918%	1.13%	2.611%	-2.453%
CCC(=O)N1CCC2(COCc3cnc(NCc4ccco4)nc32)C1 (centres unmarked)	6.833%	5.607%	4.198%	8.063%
CC(C)n1nc2c(cc1=O)CN(CCOc1ccc(C#N)cc1)CC2	-9.94%	1.242%	3.165%	0.4236%
Cn1ccnc1CN(CCO)Cc1ccc(C(F)(F)F)cc1	-5.193%	1.538%	0%	34.46%
CCOCC(=O)NS(=O)(=O)c1ccc(F)cc1C(F)(F)F	1.815%	3.982%	-4.673%	11.17%
Cc1ccc(CN2CCc3[nH]nc(C(=O)N4CCNC(=O)C4)c3C2)s1.O=C(O)C(F)(F)F	-6.419%	-	-	28.4%
O=C(CC1CC1)NCc1cn2c(n1)CN(C(=O)C1CCOCC1)CC2	3.459%	1.97%	-0.2538%	-40.34%

Repeated from the top, 3 entries:

| compound | A | B | C | D |
|---|---|---|---|---|
| `[H][C@@]12C[C@@H](c3nc(C)no3)CN(S(=O)(=O)N(C)C)[C@]1([H])CCO2` | 8.273% | - | - | 18.46% |
| `COCCN(C)Cc1cc(Cl)ccc1OCC(O)CN1CCCCCC1` (centres unmarked) | -6.092% | 35.32% | 9.912% | 41.77% |
| `COCCCn1ccc(NC(=O)NCCCNc2ccccc2)n1` | -33.92% | 7.216% | 7.692% | 7.411% |

From ChEMBL document CHEMBL3988442, “University of Dundee, Small-Polar-MMV Screening Library” (2021).